Measurements taken from US5234903A, “Chemically modified hemoglobin as an effective, stable non-immunogenic red blood cell substitute” (Enzon, Inc., priority 1990, dated 1993).

Assay: % deoxyHb after PEGylation (OSM3 Hemoximeter)
Assay type: physicochemical

Substance	% deoxyHb (after PEGylation) (0% deoxyHb before PEGylation, BSC-PEG) [%]	% deoxyHb (after PEGylation) (25% deoxyHb before PEGylation, BSC-PEG) [%]	% deoxyHb (after PEGylation) (45% deoxyHb before PEGylation, BSC-PEG) [%]	% deoxyHb (after PEGylation) (61% deoxyHb before PEGylation, BSC-PEG) [%]	% deoxyHb (after PEGylation) (76% deoxyHb before PEGylation, BSC-PEG) [%]	% deoxyHb (after PEGylation) (93% deoxyHb before PEGylation, BSC-PEG) [%]	% deoxyHb (after PEGylation) (0% deoxyHb before PEGylation, SC-PEG) [%]	% deoxyHb (after PEGylation) (20% deoxyHb before PEGylation, SC-PEG) [%]	% deoxyHb (after PEGylation) (35% deoxyHb before PEGylation, SC-PEG) [%]	% deoxyHb (after PEGylation) (50% deoxyHb before PEGylation, SC-PEG) [%]	% deoxyHb (after PEGylation) (70% deoxyHb before PEGylation, SC-PEG) [%]	% deoxyHb (after PEGylation) (90% deoxyHb before PEGylation, SC-PEG) [%]	% deoxyHb (after PEGylation) (95% deoxyHb before PEGylation, SC-PEG) [%]
Example X: bovine hemoglobin deoxygenated by gas exchange, modified with BSC-PEG (M.W. 5000), BSC-PEG:Hb 2.5:1, crosslinked	0	23	43	60	74	91	–	–	–	–	–	–	–
Example VIII: bovine hemoglobin partially deoxygenated by gas exchange, modified with SC-PEG (M.W. 5141), SC-PEG:Hb 12:1	–	–	–	–	–	–	0	18	33	48	68	88	92
